Measured values: PubChem BioAssay AID330 (DTP/NCI, 2004)
The list shows only some results of the screen, not a fair sample: it gathers tests that were run many times, whatever their T/C, doses with no T/C, and many T/C values between a quarter and a half above the control. Further doses and runs are listed elsewhere. T/C gives the treated animals as a percentage of the vehicle group. Some doses have a count of surviving animals in place of a T/C: the source holds a T/C of zero for them, seemingly a mark for toxic or unscored doses. Some doses without a T/C left all or most animals alive at the check, yet need not have been tolerated: survival well below the control is almost never listed, so the zero probably covers shortened survival too. Counts of survivors are from the toxicity check (mostly the fifth day) where no day follows; animals may have died later. Schedules are NCI's codes, read here as Q, the interval in days (D) or hours (H), X, the number of doses. Some entries were tested several times; their values stand side by side, smallest first. Additions like (4×) stand for listed records that agree. Where survival is the endpoint, the PubChem record calls one and a half times the control and up active, and a quarter to a half above the control has no call in these data; cut-offs in other NCI protocols can differ. Some T/C values carry the count of animals alive at the toxicity check (mostly the fifth day); where none is given, no animal had died by that day. Some schedule codes hold Z or #, which are not explained here.

Tested on: P388 leukemia ip, CD2F1 mice, survival T/C
Test: NCI In Vivo Anticancer Drug Screen. Data for tumor model P388 Leukemia (intraperitoneal) in CD2F1 (CDF1) mice
Settings: T/C endpoint: median survival time, higher T/C = longer survival
[1] = dose: 100.0 mg/kg/injection, schedule: Q01DX009 (ip), vehicle: Klucel (hydroxypropylcellulose) (HPC)
[2] = dose: 100.0 mg/kg/injection, schedule: Q01DX009 (ip), vehicle: saline
[3] = dose: 200.0 mg/kg/injection, schedule: Q01DX001 (ip), vehicle: Klucel (hydroxypropylcellulose) (HPC)

With `O=P1(N(CCCl)CCCl)NCCCO1` (stereo not drawn) the survivor count (dose: 100.0 mg/kg/injection, schedule: Q01DX005 (ip), vehicle: Klucel (hydroxypropylcellulose) (HPC)) was 3 of 6 and 6 of 6, the T/C (dose: 100.0 mg/kg/injection, schedule: Q01DX005 (ip), vehicle: saline, evaluated on day 30) was 125, 294, 297 % of control and the T/C (dose: 100.0 mg/kg/injection, schedule: Q01DX005 (ip), vehicle: saline, evaluated on day 45) was 346 % of control. The survivor count (dose: 100.0 mg/kg/injection, schedule: Q01DX005 (ip), vehicle: saline) was 8 of 8, the T/C [1] was 86, 87 (2×), 89, 92, 98 (3×), 99, 100 (2×), 101 (2×), 102, 103, 105, 106, 107, 109, 111, 115, 116, 120, 125, 134, 137, 145, 147, 153 % of control and the survivor count [1] was 5 of 6, 3 of 3, 6 of 6. The T/C [2] was 105, 116, 175 % of control, the survivor count [2] was 6 of 6 and 8 of 8 and the survivor count (dose: 100.0 mg/kg/injection, schedule: Q01DX009 (ip), vehicle: water) was 6 of 6. For the same molecule, the T/C (dose: 100.0 mg/kg/injection, schedule: Q04DX002 (ip), vehicle: Klucel (hydroxypropylcellulose) (HPC)) was 97, 128, 152, 182, 184, 193, 209, 211, 221, 228, 243, 245 (2×), 250, 254 (2×), 256 (3×), 258, 261, 263, 266, 267, 269, 272, 275 (2×), 277 (2×), 285 (2×), 294 (2×), 303 % of control, the T/C (dose: 100.0 mg/kg/injection, schedule: Q04DX003 (ip), vehicle: Klucel (hydroxypropylcellulose) (HPC), evaluated on day 30) was 100, 108, 112 [2 of 3 alive], 113, 114, 133, 136, 148, 163, 166 [5 of 6 alive], 169, 179, 189, 191, 210, 226 (2×), 233, 236, 237, 238, 247, 252 (2×), 252 [2 of 2 alive], 253, 254 (2×), 256, 258, 277 (2×), 280, 290, 297 % of control and the T/C (dose: 100.0 mg/kg/injection, schedule: Q04DX003 (ip), vehicle: Klucel (hydroxypropylcellulose) (HPC), evaluated on day 35) was 173 % of control. For the same molecule, the T/C (dose: 100.0 mg/kg/injection, schedule: Q04DX003 (ip), vehicle: saline, evaluated on day 10) was 277 % of control, the T/C (dose: 100.0 mg/kg/injection, schedule: Q04DX003 (ip), vehicle: saline, evaluated on day 30) was 145 % of control and the T/C (dose: 100.0 mg/kg/injection, schedule: Q04DX003 (ip), vehicle: saline, evaluated on day 45) was 303 and 382 % of control. The T/C (dose: 100.0 mg/kg/injection, schedule: Q04DX003 (ip), vehicle: saline, evaluated on day 50) was 135 % of control, the T/C (dose: 100.0 mg/kg/injection, schedule: Q## X001 (ip), vehicle: saline) was 96, 115 [9 of 10 alive], 135, 194 % of control and the T/C (dose: 133.0 mg/kg/injection, schedule: Q01DX001 (ip), vehicle: saline, evaluated on day 11) was 220 % of control. For the same molecule, the T/C (dose: 133.0 mg/kg/injection, schedule: Q01DX001 (ip), vehicle: saline, evaluated on day 60) was 196, 428 [9 of 10 alive], 532 % of control, the T/C (dose: 150.0 mg/kg/injection, schedule: Q01DX001 (ip), vehicle: saline, evaluated on day 5) was 190 and 200 % of control and the T/C (dose: 150.0 mg/kg/injection, schedule: Q01DX001 (ip), vehicle: saline, evaluated on day 9) was 104, 111, 112, 231, 243, 257, 260 % of control. For the same molecule, the T/C (dose: 160.0 mg/kg/injection, schedule: Q01DX005 (ip), vehicle: saline, evaluated on day 30) was 87 (2×), 89, 90, 91, 106, 110, 117, 123, 150, 158, 168, 255, 276, 283, 287, 294 (2×), 300 % of control, the T/C (dose: 160.0 mg/kg/injection, schedule: Q01DX005 (ip), vehicle: saline, evaluated on day 35) was 100 % of control and the T/C (dose: 160.0 mg/kg/injection, schedule: Q01DX005 (ip), vehicle: saline, evaluated on day 60) was 100 and 116 % of control. The survivor count (dose: 160.0 mg/kg/injection, schedule: Q01DX005 (ip), vehicle: saline) was 5 of 6 and 6 of 6, the T/C (dose: 160.0 mg/kg/injection, schedule: Q01DX009 (ip), vehicle: saline, evaluated on day 30) was 88, 91, 94 (2×), 96, 98, 99, 100, 101, 103, 106, 113, 121, 130 % of control and the T/C (dose: 160.0 mg/kg/injection, schedule: Q01DX009 (ip), vehicle: saline, evaluated on day 35) was 97 % of control. For the same molecule, the T/C (dose: 160.0 mg/kg/injection, schedule: Q01DX009 (ip), vehicle: saline, evaluated on day 60) was 97 and 99 % of control, the survivor count (dose: 160.0 mg/kg/injection, schedule: Q01DX009 (ip), vehicle: saline) was 5 of 6 and 6 of 6 and the T/C (dose: 160.0 mg/kg/injection, schedule: Q04DX003 (ip), vehicle: water) was 144 % of control. The T/C (dose: 160.0 mg/kg/injection, schedule: Q04DX003 (iv), vehicle: saline) was 126 % of control, the T/C (dose: 165.0 mg/kg/injection, schedule: Q04DX003 (ip), vehicle: saline) was 126 % of control and the T/C (dose: 175.0 mg/kg/injection, schedule: Q01DX001 (ip), vehicle: saline, evaluated on day 45) was 252, 262, 390, 432, 450 % of control. The T/C (dose: 175.0 mg/kg/injection, schedule: Q01DX001 (ip), vehicle: saline, evaluated on day 60) was 184, 336 [9 of 10 alive], 358, 360, 433, 566 % of control, the T/C [3] was 105 (2×), 113 [5 of 6 alive], 150, 199, 228, 243, 247, 255, 262, 264, 266, 267 (4×), 270, 274, 280, 282 (2×), 285, 287 [5 of 6 alive], 291 (3×), 294, 296, 297 % of control and the survivor count [3] was 3 of 3 and 6 of 6 (2×). For the same molecule, the T/C (dose: 200.0 mg/kg/injection, schedule: Q01DX001 (ip), vehicle: saline, evaluated on day 5) was 185, 242, 252, 302 % of control, the T/C (dose: 200.0 mg/kg/injection, schedule: Q01DX001 (ip), vehicle: saline, evaluated on day 9) was 95, 176, 232 % of control and the T/C (dose: 200.0 mg/kg/injection, schedule: Q01DX001 (ip), vehicle: saline, evaluated on day 10) was 281 % of control. For the same molecule, the T/C (dose: 200.0 mg/kg/injection, schedule: Q01DX001 (ip), vehicle: saline, evaluated on day 11) was 262 % of control, the T/C (dose: 200.0 mg/kg/injection, schedule: Q01DX001 (ip), vehicle: saline, evaluated on day 20) was 262 % of control [4 of 7 alive] and the T/C (dose: 200.0 mg/kg/injection, schedule: Q01DX001 (ip), vehicle: saline, evaluated on day 21) was 194 % of control. For the same molecule, the T/C (dose: 200.0 mg/kg/injection, schedule: Q01DX001 (ip), vehicle: saline, evaluated on day 30) was 108 [1 of 1 alive], 163, 209, 220, 231, 243 [2 of 2 alive], 245, 250 (2×), 265 (2×), 267, 270, 274, 277, 283, 285, 294 (2×), 297 (3×), 300 (3×), 300 [5 of 6 alive], 309 % of control.
